The source of these data is PMC11050535.

The experiment concerns the target McHB7-FLAG (Homeobox 7 transcription factor of the ice plant) (Mesembryanthemum crystallinum). Kind of experiment: affinity purification with mass spectrometry; McHB7-FLAG as bait; extract of infiltrated ice plant leaves (150 mM NaCl, 50 mM Tris-HCl pH 8.0, 1 mM EDTA, 1% Triton X-100) on anti-FLAG M2 resin, 4 °C, 2 h; eluted with 3xFLAG peptide; LC-MS/MS; WT leaves as control.

These are yes or no findings as the source states them, for the method shown. In cells and extracts the contact can be indirect. A yes stands for co-enrichment or nearness to the bait. Other partners may have been found.

B1: delta-1-pyrroline-5-carboxylate synthetase (O65361) (protein, UniProt O65361 1-719)
chain: MDATRAFVKDVKRVVVKVGTAVVTRSDGRLALGRLGSLCEQLKELNSDGYEVILVTSGAVSAGRQRLRFRKLVNSSFADLQKPQVELDGKACAAVGQNGLMALYDTLFSQLDLTAAQLLVTDNDFRDPSFRTQLTETVYQLLDLKVVPVLNENDAVSTRKAPYEDSSGIFWDNDSLAALLALELKADLLILLSDVDGLYNGPPSDPRSKLISTYVKEKHQGEITFGDKSRLGRGGMTAKVKAAVYAAYAGIPVIIASGKATDNIIKVIDGQCVGTLFHKDAHLWVQVKETGVRDMAVAARESSRRLQAVSSEERKKILLDIADALEANEEKILAENEADVAAAQYAGYDRSLVARLAMNPDKISSLAKSIRVLADMEEPIGRILKRTEIADGLILEKTSCPLGVLLIVFESRPDALVQIASLAIRSGNGLLLKGGKEAKRSNAILHKVITSAIPDKVGEKLIGLVTSRDEIPDLLKLDDVIDLVIPRGSNKLVSQIKESTRIPVLGHADGICHVYVDKSANMDMAKRIVLDAKTDYPAACNAMETLLVHKDLAENGGLNDLIVDLRTEGVTMFGGPRIDALQEFNIQATQTFNREYSSPACTVEIVDDVYAAIEHINHHGSAHTDCIIAEDHKVAETFLQLVDSAAVLHNASTRFCDGFRFGLGAEVGISTSRIHARGPVGVEGLLTTRWVLKGSGQVVHGDKGVVYTHKDLPLVAQNS
Take B1: the binding result is recorded as “binds”.
